The experiment deals with L1210 leukemia iv in BDF1 mice, survival T/C. The experiment in a line: NCI In Vivo Anticancer Drug Screen. Data for tumor model L1210 Leukemia (intravenous) in B6D2F1 (BDF1) mice. The note with it: higher T/C = longer survival. How it is done:
The antitumor activity of compounds was measured in mice bearing transplantable tumors. Survival or tumor size were measured and the results are expressed as the measurement made in the treated group (T) divided by the measurement made in the vehicle treated control group (C). The tumor model used in this assay is L1210 Leukemia (intravenous) in B6D2F1 (BDF1) mice

The list does not hold the whole screen: it is rich in T/C values a quarter to a half above the control, in often repeated tests (any T/C) and in doses without a T/C. Further doses and runs are listed elsewhere. T/C gives the treated animals as a percentage of the vehicle group. Some entries give survivors of the animals treated and no T/C: the source holds a T/C of zero for them, seemingly a mark for toxic or unscored doses. Some doses without a T/C left all or most animals alive at the check, yet need not have been tolerated: the source hardly ever lists a survival T/C far under the control, and the zero likely stands for such cases as well. Counts of survivors are from the toxicity check (mostly the fifth day) where no day follows; animals may have died later. Schedules are NCI's codes, read here as Q, the interval in days (D) or hours (H), X, the number of doses. Some entries hold several experiments; the results are listed from low to high. Some schedules carry Z or #; the key to these is not given. For survival time, the PubChem record calls one and a half times the control and up active, and a quarter to a half above the control has no call in these data; cut-offs in other NCI protocols can differ. Counts like (3×) stand for listed records that agree.

For twelve compounds, T/C and survivor count results are on record in PubChem BioAssay AID254 (DTP/NCI, 2004).

As to `O=NN(CCCl)C(=O)NC1C2CC3CC(C2)CC1C3` (stereo unspecified), the T/C (T/C endpoint: mean survival time, dose: 45.0 mg/kg/injection, schedule: Q01DX001 (ip), vehicle: other) was 134 % of control.
In the case of `CC(CN1CC(=O)NC(=O)C1)N1CC(=O)NC(=O)C1` (stereo unspecified), the T/C was 143 % of control (T/C endpoint: mean survival time, dose: 500.0 mg/kg/injection, schedule: Q04DX003 (ip), vehicle: Klucel (hydroxypropylcellulose) (HPC), evaluated on day 5) and 143 % of control (T/C endpoint: mean survival time, dose: 500.0 mg/kg/injection, schedule: Q04DX003 (ip), vehicle: Klucel (hydroxypropylcellulose) (HPC), evaluated on day 60).
As to `COc1cccc2c1C(=O)c1c(O)c3c(c(O)c1C2=O)C[C@@](O)(C(=O)CO)C[C@@H]3OC1CC(N)C(O)C(C)O1` (stereo partly specified), the survivor count was 8 of 8 (T/C endpoint: mean survival time, dose: 5.0 mg/kg/injection, schedule: Q01DX005 (iv), vehicle: saline); 11 of 13 and 8 of 8 (T/C endpoint: mean survival time, dose: 6.0 mg/kg/injection, schedule: Q01DX005 (iv), vehicle: saline); 7 of 8 (T/C endpoint: mean survival time, dose: 7.0 mg/kg/injection, schedule: Q01DX005 (iv), vehicle: saline); 12 of 13 (T/C endpoint: mean survival time, dose: 8.0 mg/kg/injection, schedule: Q01DX005 (iv), vehicle: saline).
As for `Nc1n[nH]c(N)n1`, the T/C reads like this: (T/C endpoint: mean survival time, dose: 225.0 mg/kg/injection, schedule: Q03HX024 (ip), vehicle: saline) 133 % of control; (T/C endpoint: mean survival time, dose: 6000.0 mg/kg/injection, schedule: Q01DX001 (ip), vehicle: saline) 125 % of control. Moreover, where the note is “T/C endpoint: mean survival time, dose: 8000.0 mg/kg/injection, schedule: Q01DX001 (ip), vehicle: saline”, the survivor count is 6 of 10.
For the compound `O=NN(CCCl)C(=O)NC1CS(=O)(=O)CS(=O)(=O)C1`, the T/C by setting is: (T/C endpoint: mean survival time, dose: 5.3 mg/kg/injection, schedule: Q04DX004 (ip), vehicle: saline with Tween-80, evaluated on day 3) 133 % of control; (T/C endpoint: mean survival time, dose: 5.3 mg/kg/injection, schedule: Q04DX004 (ip), vehicle: saline with Tween-80, evaluated on day 60) 133 % of control.
Take `CC[C@H]1CN2CCc3cc(OC)c(OC)cc3[C@@H]2C[C@@H]1C[C@H]1NCCc2cc(OC)c(OC)cc21`: the survivor count is, setting by setting: (T/C endpoint: median survival time, dose: 16.0 mg/kg/injection, schedule: Q## X001 (ip), vehicle: saline) 5 of 10; (T/C endpoint: median survival time, dose: 32.0 mg/kg/injection, schedule: Q## X001 (ip), vehicle: saline) 6 of 10; (T/C endpoint: median survival time, dose: 48.0 mg/kg/injection, schedule: Q## X001 (ip), vehicle: saline) 1 of 10.
As for `Nc1ccn(C2OC(COC(=O)C34CC5CC(CC(C5)C3)C4)C(O)C2O)c(=O)n1` (stereo unspecified), the T/C (T/C endpoint: mean survival time, dose: 50.0 mg/kg/injection, schedule: Q01DX001 (ip), vehicle: other) is 146 and 148 % of control.
With `O=NN(CCF)C(=O)NC1CSCSC1`, the T/C (T/C endpoint: mean survival time, dose: 3.7 mg/kg/injection, schedule: Q01DX001 (ip), vehicle: other) was 139 % of control.
As for `O=NN(CCCl)C(=O)N[C@H]1CCCC[C@@H]1Cl`, the T/C was 130 and 143 % of control (T/C endpoint: mean survival time, dose: 10.0 mg/kg/injection, schedule: Q01DX001 (ip), vehicle: other); 131 % of control (T/C endpoint: mean survival time, dose: 10.0 mg/kg/injection, schedule: Q04DX004 (ip), vehicle: other); 147 % of control (T/C endpoint: mean survival time, dose: 15.0 mg/kg/injection, schedule: Q01DX001 (ip), vehicle: other); 161, 179, 192, 193, 195 % of control (T/C endpoint: mean survival time, dose: 20.0 mg/kg/injection, schedule: Q01DX001 (ip), vehicle: other, evaluated on day 45); 284 % of control (T/C endpoint: mean survival time, dose: 20.0 mg/kg/injection, schedule: Q01DX001 (ip), vehicle: other, evaluated on day 60); 562, 623, 668 % of control (T/C endpoint: mean survival time, dose: 60.0 mg/kg/injection, schedule: Q01DX001 (ip), vehicle: other, evaluated on day 45). The T/C (T/C endpoint: mean survival time, dose: 60.0 mg/kg/injection, schedule: Q01DX001 (ip), vehicle: other, evaluated on day 60) was 221 and 871 % of control.
For the compound `O=NN(CCF)C(=O)NC1CCS(=O)(=O)CC1`, under “T/C endpoint: mean survival time, dose: 2.9 mg/kg/injection, schedule: Q01DX001 (ip), vehicle: other”, the T/C was 135 and 138 % of control. The survivor count (T/C endpoint: mean survival time, dose: 80.0 mg/kg/injection, schedule: Q01DX001 (oral), vehicle: other) is 0 of 9 and 4 of 10.
Consider `O=NN(CCCl)C(=O)NC1CCC(NC(=O)N(CCCl)N=O)CC1` (stereo unspecified), for which the T/C is 140 % of control (T/C endpoint: mean survival time, dose: 20.0 mg/kg/injection, schedule: Q01DX001 (ip), vehicle: saline with Tween-80); 134 and 138 % of control (T/C endpoint: mean survival time, dose: 30.0 mg/kg/injection, schedule: Q01DX001 (ip), vehicle: saline with Tween-80); 131 % of control (T/C endpoint: mean survival time, dose: 38.0 mg/kg/injection, schedule: Q01DX001 (oral), vehicle: other); 146 % of control (T/C endpoint: mean survival time, dose: 44.0 mg/kg/injection, schedule: Q01DX001 (ip), vehicle: saline with Tween-80).
Regarding `O=NN(CCCl)C(=O)NC1CCC(=O)NC1=O` (stereo unspecified), the T/C (T/C endpoint: mean survival time, dose: 2.1 mg/kg/injection, schedule: Q01DX001 (ip), vehicle: other) is 127 % of control (2×).
